# Results of single-concentration screens

The chains behind the UniProt entries cited, without tags or fusion partners. Residues count along the entry.
UniProt P9WPC5, whole entry: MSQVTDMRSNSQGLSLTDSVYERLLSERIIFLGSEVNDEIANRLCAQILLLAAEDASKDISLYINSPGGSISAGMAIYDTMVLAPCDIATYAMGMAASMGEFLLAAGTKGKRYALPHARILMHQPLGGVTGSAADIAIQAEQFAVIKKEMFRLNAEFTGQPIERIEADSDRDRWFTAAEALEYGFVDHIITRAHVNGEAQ
UniProt P9WPC3, whole entry partner: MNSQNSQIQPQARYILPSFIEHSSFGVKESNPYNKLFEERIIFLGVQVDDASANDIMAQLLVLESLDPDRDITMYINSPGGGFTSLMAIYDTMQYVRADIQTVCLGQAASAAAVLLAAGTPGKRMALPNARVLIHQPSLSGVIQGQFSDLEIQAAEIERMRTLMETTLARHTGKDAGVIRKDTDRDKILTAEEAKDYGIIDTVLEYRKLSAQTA
UniProt P9WNZ1, whole entry: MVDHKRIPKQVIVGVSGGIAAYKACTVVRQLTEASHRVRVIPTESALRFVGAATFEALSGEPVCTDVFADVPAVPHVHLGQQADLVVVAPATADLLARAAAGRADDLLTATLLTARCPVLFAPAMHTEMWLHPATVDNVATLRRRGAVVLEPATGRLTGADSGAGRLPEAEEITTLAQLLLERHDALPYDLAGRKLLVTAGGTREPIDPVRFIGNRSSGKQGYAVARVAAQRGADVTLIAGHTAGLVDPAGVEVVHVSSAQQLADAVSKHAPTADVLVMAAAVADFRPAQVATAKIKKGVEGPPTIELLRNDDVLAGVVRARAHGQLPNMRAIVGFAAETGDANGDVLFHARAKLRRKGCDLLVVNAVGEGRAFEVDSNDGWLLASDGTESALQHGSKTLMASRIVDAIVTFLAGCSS
UniProt Q8IDJ8, 1-583: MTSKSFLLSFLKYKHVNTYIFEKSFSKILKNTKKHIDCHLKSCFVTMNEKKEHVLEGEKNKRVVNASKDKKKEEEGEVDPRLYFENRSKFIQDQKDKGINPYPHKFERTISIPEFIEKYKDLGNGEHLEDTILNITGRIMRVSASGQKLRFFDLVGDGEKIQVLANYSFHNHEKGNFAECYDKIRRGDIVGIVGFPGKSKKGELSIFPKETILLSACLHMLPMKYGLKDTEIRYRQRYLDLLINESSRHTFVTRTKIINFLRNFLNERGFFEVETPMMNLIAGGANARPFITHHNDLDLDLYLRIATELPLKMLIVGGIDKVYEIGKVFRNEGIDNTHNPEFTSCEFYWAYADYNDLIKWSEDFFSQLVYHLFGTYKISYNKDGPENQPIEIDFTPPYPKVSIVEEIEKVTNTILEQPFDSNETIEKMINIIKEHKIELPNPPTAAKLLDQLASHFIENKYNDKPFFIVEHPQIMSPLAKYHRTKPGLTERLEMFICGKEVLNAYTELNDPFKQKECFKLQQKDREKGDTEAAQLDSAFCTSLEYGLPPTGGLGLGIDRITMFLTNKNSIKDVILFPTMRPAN

Source: ChEMBL document CHEMBL3988442, “University of Dundee, Small-Polar-MMV Screening Library” (2021).

ClpP1P2: 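Protease assay of ClpP1P2, read by the AMC dye that it sets free. Target: ClpP1P2, Mycobacterium tuberculosis (UniProt P9WPC5 and UniProt P9WPC3). Compounds at 50 µM. Direction is inferred from only a few compounds that gave an IC50; most scored high, so higher reads as stronger inhibition. Most other retested compounds had strongly negative values. About 69,000 compounds were tested under these conditions; 0.015% (about 10) showed 50% or more at least once.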
CoaBC: 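Enzyme assay of CoaBC with a phosphate dye (Biomol Green) read at 650 nm. Target: Coenzyme A biosynthesis protein CoaBC, Mycobacterium tuberculosis (UniProt P9WNZ1). Concentration: 30 µM. Higher reads as stronger inhibition, judged from the few compounds that gave an IC50. Most strong results did not repeat in a second test. About 67,000 compounds were tested under these conditions; 0.06% (about 40) showed 50% or more at least once.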
PfKRS1: 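Lysine-tRNA ligase, Plasmodium falciparum 3D7 (UniProt Q8IDJ8). Enzyme assay of the cytosolic lysyl-tRNA synthetase in 384-well plates, read by luminescence. Concentration: 30 µM. Direction is inferred from only a few compounds that gave an IC50; most scored high, so higher reads as stronger inhibition. About 69,000 compounds were tested under these conditions; 0.071% (about 49) showed 50% or more at least once.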

Values are the deposited “Percent Effect”, in %.
The controls that fix the scale are not given in the record; negative values are as filed.
This is an unselected part of the compounds tested.

structure | ClpP1P2 | CoaBC | PfKRS1
Nc1nc2c(c(N3CCSCC3)n1)CCN(Cc1ccccn1)CC2 | -7.562% | 6.855% | -3.24%
COc1cccc(CNC(=O)N2CCCC(Cn3cc(CN)nn3)C2)c1 (centres unmarked) | -5.741% | -2.195% | -1.742%
Cn1nc(C2CCN(C(=O)CCN3CCOCC3)CC2)c2cccnc21 | 3.147% | 1.961% | -0.3258%
Cc1ncccc1CNCC1CCN(CC(C)O)CC1 (centres unmarked) | -2.164% | 5.471% | 4.783%
CC(=O)N1CCN(C(=O)c2cnc(OC(C)C)c(Cl)c2)CC1 | -25.02% | 6.098% | 1.565%
COCC(=O)NC[C@]12COC[C@H]1CN(Cc1ccc3c(c1)OCO3)C2 | 1.627% | -0.3713% | 2.427%
O=C(CC1CCCO1)NCc1ccc(Br)cc1F (centres unmarked) | -5.97% | 0.3968% | -0.3653%
COc1cccc(C2SCC(=O)Nc3n[nH]cc32)c1OC(C)C (centres unmarked) | -14.8% | 0.6329% | 1.841%
NS(=O)(=O)c1cc(C(=O)N2CCCC(n3ccnc3)C2)cs1 (centres unmarked) | -13.96% | -8.847% | 1.447%
Cc1nn(C)c2c(N(C)Cc3cccs3)nc(C3CC3)nc12 | 23.02% | 2.184% | -2.129%
Cc1ccc(S(=O)(=O)NCC(O)c2ccoc2)s1 (centres unmarked) | -13.28% | 1.277% | 7.647%
Cc1ccc(CNC2(Cc3cc(CC(C)C)on3)COC2)o1 | 13.05% | 4.194% | -3.506%
CSCCC(O)C(=O)N1CCC(OCc2cccnc2)CC1 (centres unmarked) | -8.656% | 3.24% | -0.8101%
CCOc1ccc(CNC(C)c2ccc3[nH]c(=O)[nH]c3c2)cc1 (centres unmarked) | -14.74% | 16.45% | -1.804%
CCN(CC)C(=O)Nc1cccc(Oc2ccccn2)c1 | -5.614% | 6.612% | -5.672%
Cc1c(C(=O)N(C)c2ccccc2)cccc1N(C)S(C)(=O)=O | -4.89% | 1.294% | -0.3772%
c1ccc(CN2CC[C@@H]3O[C@H](COCc4ccncc4)CC[C@@H]32)nc1 | -2.829% | 2.332% | 2.8%
CN(CCCc1cnn(C)c1)Cc1cc2n(n1)CCCN(C)C2 | 11.02% | -1.294% | 1.198%
CN1CCc2[nH]cnc2C12CCN(C(=O)c1noc3c1CCCC3)CC2 | -0.2045% | 14.1% | -3.584%
Cc1cc(C)c2cc(CNCc3ccco3)c3nn(C)c(=O)n3c2c1 | -23.86% | 0.2421% | 1.303%
CCS(=O)(=O)N1CC(c2nc(-c3ccsc3)no2)C1 | -17.67% | 1.631% | 10.26%
O=C(Nc1nc2c(s1)CN(S(=O)(=O)C1CC1)CC2)Nc1ccccc1F | -15.11% | -4.326% | 4.151%
CN(CCc1ccncc1)CCc1nccs1 | -6.414% | 5.765% | 4.137%
O=c1ccc2c(n1Cc1cccnc1)CCN(CC1CCOC1)CC2 (centres unmarked) | -2.327% | 3.893% | 4.857%
Cc1nc(C)n(CC2CN(Cc3cccnc3)CCO2)n1 (centres unmarked) | 11.13% | 7.846% | 5.171%
CC(C)=CCN1CCC(c2nccn2Cc2cscn2)CC1 | -6.247% | -18.86% | 3.134%
CN(Cc1noc(C2CC2)n1)C1CCN(Cc2nc(C3CC3)no2)C1 (centres unmarked) | 2.498% | -0.1148% | -0.1005%
O=C(c1ccoc1)N(Cc1ccccn1)C1CC1 | -7.406% | 5.932% | 11.01%
CC(=O)N1CCC(c2cccc(-c3cccc(C(=O)O)c3)n2)CC1 | -30.56% | -15.62% | 0.595%
CCC(NC(=O)c1cc(OC)c2c(c1)OCCO2)c1cccs1 (centres unmarked) | -3.618% | -0.3891% | 8.542%
O=C(NCCNc1ncccn1)C1CCN(C(=O)c2ccoc2)CC1 | -3.871% | 14.69% | 5.277%
O=C(NC1CCS(=O)(=O)C1)c1sccc1-c1ccc(F)cc1 (centres unmarked) | 3.361% | -1.322% | 1.278%
CC1CCN(Cc2ccc(CNC(=O)c3ccn(C)c(=O)c3)cc2)CC1 | -1.519% | 5.257% | -0.6501%
CCc1n[nH]c(C2CN(C(=O)c3cc(C(N)=O)cs3)CCO2)n1 (centres unmarked) | -18.7% | 0.7874% | 1.736%
CC(C)c1nccc(C2(c3ccccc3Cl)CCNCC2)n1 | -9.199% | 3.807% | 2.417%
N[C@H]1CN(C(=O)c2ccc(Cl)cc2F)C[C@@H]1C1CC1 | -2.867% | -0.6098% | -1.51%
O=C(NCCN1CCOCC1)c1nc(-c2ccc3[nH]ccc3c2)no1 | -3.099% | 3.788% | 7.516%
CCC(CO)N(Cc1ccc(C(=O)O)cc1)Cc1ccsc1 (centres unmarked) | 0.1217% | 6.612% | 5.477%
Cc1ccc(CN2CC[C@H]3OCC[C@@]3(C(=O)N3CCCO3)C2)o1 | -18.33% | -2.589% | -3.963%
CC(C)(C)c1nnc(CNc2c(F)cccc2-n2cccn2)o1 | 5.63% | 3.353% | 2.479%
NC(=O)Cc1csc(NC(=O)C2CSCCC(=O)N2)n1 (centres unmarked) | -1.917% | 12.05% | 6.507%
CCN1CCC(NC(=O)CN2CCCC(NS(C)(=O)=O)C2)CC1 (centres unmarked) | -2.887% | -10.71% | 3.265%
COC1COC2(CCN(C(=O)c3ncccn3)CC2)C1 (centres unmarked) | 12.88% | 10.86% | -3.577%
Cc1ccccc1C(C#N)NC(=O)CCCOc1cccnc1 (centres unmarked) | -6.867% | 3.704% | 3.848%
CC(C)C(=O)N(C)Cc1nc(N2CCCC2)ncc1-c1ccncc1 | -9.413% | 5.919% | 2.505%
CCN(C)S(=O)(=O)NCC1CCN(Cc2ccccc2F)C1 (centres unmarked) | 6.964% | 2.408% | 6.69%
CCCN1CCc2nc(SCc3ccc(F)cc3)[nH]c(=O)c2C1 | -11.47% | -0.3953% | 7.413%
Cc1cc(C)cc(CN2CCC3(CC2)CC(Nc2ncccn2)CO3)c1 (centres unmarked) | 0.9981% | 2.433% | 2.115%
Cc1cc(C)c(CNC(=O)N2CCN(c3ccccn3)CC2)c(=O)[nH]1 | -19.83% | 6.65% | 1.268%
Cc1cc(C[C@@H]2CCC[C@H]2NCc2ccc(C(F)(F)F)cc2)on1 | -2.023% | -2.67% | 3.285%
CNc1cnc(CC2COCCN(Cc3cccc(C)n3)C2)cn1 (centres unmarked) | -65.39% | 2.913% | -0.3855%
CCn1cnnc1CNC(=O)N1CCCC1 | 1.169% | 1.654% | -1.487%
Cc1csc(C2(NCc3nc(-c4ccco4)no3)CCCC2)n1 | -0.7126% | -7.661% | 3.727%
CSCC[C@H](N)C(=O)NCc1cc2n(n1)CCCN(C1CCCCC1)C2 | 4.803% | -2.954% | 12.65%
Cc1ccc(C(=O)N2CC(C)(C)[C@@](C)(O)C2)cc1N1CCNC1=O | -2.781% | -2.571% | 10.17%
O=C(NCC1CC1)C1CSCN1S(=O)(=O)c1ccccc1F (centres unmarked) | 0.3532% | 4.43% | 9.096%
CCCNC(=O)CCc1ccnc2ccccc12 | -7.432% | 6.061% | 7.014%
Cc1nc(-c2ccncc2)nc(N(C)CCc2ccncc2)c1C | -0.4073% | 7.018% | 3.501%
CCn1[nH]c(C)c2c(C(F)(F)F)cc(=O)nc1-2 | -2.209% | -1.222% | 0.8243%
CCn1cc(CN2CCN(Cc3cc(C)cc(C)c3)C(=O)C2)cc1C#N | 0.9468% | 1.474% | 3.088%
CNC(=O)C1Cn2ccnc2C2(CCN(Cc3nccs3)CC2)O1 (centres unmarked) | 2.947% | -7.75% | -2.262%
CCS(=O)(=O)N1CCc2ccc(NC(=O)Nc3ccccc3C)cc21 | 9.557% | 2.768% | 6.687%
C=C(C)Cn1cc(C(N)=O)nc1C1CC1 | -3.145% | -16.67% | -3.465%
Cc1cnn(CC(C)NCc2cc(C#N)ccc2F)c1 (centres unmarked) | -0.1928% | 1.434% | 3.158%
COc1ncccc1C(=O)N1CCC(c2nc3c(C)cccc3[nH]2)CC1 | 14.3% | 7.841% | 4.792%
COCCN(C)C(=O)Nc1cc2c(cc1SC)OCCO2 | 7.544% | -0.4878% | -0.4116%
Cc1cnn(CC2CCCN2C(=O)CCc2ccncc2)c1 (centres unmarked) | -50.68% | 6.005% | -0.1219%
Cn1cc(CNC2CCCN(Cc3noc(C4CC4)n3)C2)cn1 (centres unmarked) | 26.08% | 0.7979% | 2.607%
Cc1nnc2n1CCN(CCS(=O)(=O)c1ccc(Cl)cc1)C2 | -24.23% | -6.136% | 0.1828%
Cc1ccc2c(c1)C1(CC2)CCN(CC(=O)O)CC1 | -17.82% | 8.795% | -1.867%
C=C(C)CN1CCC(NC(=O)NCCc2ccccc2OC)CC1 | -8.852% | 4.167% | 3.349%
COc1ccc(CNc2nc(C3CC3)no2)cc1OC | 7.359% | -11.35% | -0.249%
Cc1cnn(CC2CCCN2C(=O)CCc2ccsc2)c1 (centres unmarked) | -0.5853% | -2.564% | 4.232%
c1cnnc(-c2noc(CCN3CCCO3)n2)c1 | 4.192% | 11.07% | 7.154%
Cc1nn(Cn2ccc(C(=O)N3CCOCC3)n2)c(C)c1Cl | 16.16% | 13.65% | 3.247%

Repeated from the top, 9 entries:

{"structure": "Nc1nc2c(c(N3CCSCC3)n1)CCN(Cc1ccccn1)CC2", "ClpP1P2": -7.562, "CoaBC": 6.855, "PfKRS1": -3.24}
{"structure": "COc1cccc(CNC(=O)N2CCCC(Cn3cc(CN)nn3)C2)c1", "stereo": "centres unmarked", "ClpP1P2": -5.741, "CoaBC": -2.195, "PfKRS1": -1.742}
{"structure": "Cn1nc(C2CCN(C(=O)CCN3CCOCC3)CC2)c2cccnc21", "ClpP1P2": 3.147, "CoaBC": 1.961, "PfKRS1": -0.3258}
{"structure": "Cc1ncccc1CNCC1CCN(CC(C)O)CC1", "stereo": "centres unmarked", "ClpP1P2": -2.164, "CoaBC": 5.471, "PfKRS1": 4.783}
{"structure": "CC(=O)N1CCN(C(=O)c2cnc(OC(C)C)c(Cl)c2)CC1", "ClpP1P2": -25.02, "CoaBC": 6.098, "PfKRS1": 1.565}
{"structure": "COCC(=O)NC[C@]12COC[C@H]1CN(Cc1ccc3c(c1)OCO3)C2", "ClpP1P2": 1.627, "CoaBC": -0.3713, "PfKRS1": 2.427}
{"structure": "O=C(CC1CCCO1)NCc1ccc(Br)cc1F", "stereo": "centres unmarked", "ClpP1P2": -5.97, "CoaBC": 0.3968, "PfKRS1": -0.3653}
{"structure": "COc1cccc(C2SCC(=O)Nc3n[nH]cc32)c1OC(C)C", "stereo": "centres unmarked", "ClpP1P2": -14.8, "CoaBC": 0.6329, "PfKRS1": 1.841}
{"structure": "NS(=O)(=O)c1cc(C(=O)N2CCCC(n3ccnc3)C2)cs1", "stereo": "centres unmarked", "ClpP1P2": -13.96, "CoaBC": -8.847, "PfKRS1": 1.447}